According to publication PMC11165425:

B1: SRP19 (protein, UniProt P09132 1-144)
chain: MACAAARSPADQDRFICIYPAYLNNKKTIAEGRRIPISKAVENPTATEIQDVCSAVGLNVFLEKNKMYSREWNRDVQYRGRVRVQLKQEDGSLCLVQFPSRKSVMLYAAEMIPKLKTRTQKTGGADQSLQQGEGSKKGKGKKKK
B2: ASCC2 (protein, UniProt Q9H1I8 1-757)
chain: MPALPLDQLQITHKDPKTGKLRTSPALHPEQKADRYFVLYKPPPKDNIPALVEEYLERATFVANDLDWLLALPHDKFWCQVIFDETLQKCLDSYLRYVPRKFDEGVASAPEVVDMQKRLHRSVFLTFLRMSTHKESKDHFISPSAFGEILYNNFLFDIPKILDLCVLFGKGNSPLLQKMIGNIFTQQPSYYSDLDETLPTILQVFSNILQHCGLQGDGANTTPQKLEERGRLTPSDMPLLELKDIVLYLCDTCTTLWAFLDIFPLACQTFQKHDFCYRLASFYEAAIPEMESAIKKRRLEDSKLLGDLWQRLSHSRKKLMEIFHIILNQICLLPILESSCDNIQGFIEEFLQIFSSLLQEKRFLRDYDALFPVAEDISLLQQASSVLDETRTAYILQAVESAWEGVDRRKATDAKDPSVIEEPNGEPNGVTVTAEAVSQASSHPENSEEEECMGAAAAVGPAMCGVELDSLISQVKDLLPDLGEGFILACLEYYHYDPEQVINNILEERLAPTLSQLDRNLDREMKPDPTPLLTSRHNVFQNDEFDVFSRDSVDLSRVHKGKSTRKEENTRSLLNDKRAVAAQRQRYEQYSVVVEEVPLQPGESLPYHSVYYEDEYDDTYDGNQVGANDADSDDELISRRPFTIPQVLRTKVPREGQEEDDDDEEDDADEEAPKPDHFVQDPAVLREKAEARRMAFLAKKGYRHDSSTAVAGSPRGHGQSRETTQERRKKEANKATRANHNRRTMADRKRSKGMIPS
B3: NEMF (protein, UniProt O60524 1-1076)
chain: MKSRFSTIDLRAVLAELNASLLGMRVNNVYDVDNKTYLIRLQKPDFKATLLLESGIRIHTTEFEWPKNMMPSSFAMKCRKHLKSRRLVSAKQLGVDRIVDFQFGSDEAAYHLIIELYDRGNIVLTDYEYVILNILRFRTDEADDVKFAVRERYPLDHARAAEPLLTLERLTEIVASAPKGELLKRVLNPLLPYGPALIEHCLLENGFSGNVKVDEKLETKDIEKVLVSLQKAEDYMKTTSNFSGKGYIIQKREIKPSLEADKPVEDILTYEEFHPFLFSQHSQCPYIEFESFDKAVDEFYSKIEGQKIDLKALQQEKQALKKLDNVRKDHENRLEALQQAQEIDKLKGELIEMNLQIVDRAIQVVRSALANQIDWTEIGLIVKEAQAQGDPVASAIKELKLQTNHVTMLLRNPYLLSEEEDDDVDGDVNVEKNETEPPKGKKKKQKNKQLQKPQKNKPLLVDVDLSLSAYANAKKYYDHKRYAAKKTQKTVEAAEKAFKSAEKKTKQTLKEVQTVTSIQKARKVYWFEKFLWFISSENYLIIGGRDQQQNEIIVKRYLTPGDIYVHADLHGATSCVIKNPTGEPIPPRTLTEAGTMALCYSAAWDARVITSAWWVYHHQVSKTAPTGEYLTTGSFMIRGKKNFLPPSYLMMGFSFLFKVDESCVWRHQGERKVRVQDEDMETLASCTSELISEEMEQLDGGDTSSDEDKEEHETPVEVELMTQVDQEDITLQSGRDELNEELIQEESSEDEGEYEEVRKDQDSVGEMKDEGEETLNYPDTTIDLSHLQPQRSIQKLASKEESSNSSDSKSQSRRHLSAKERREMKKKKLPSDSGDLEALEGKDKEKESTVHIETHQNTSKNVAAVQPMKRGQKSKMKKMKEKYKDQDEEDRELIMKLLGSAGSNKEEKGKKGKKGKTKDEPVKKQPQKPRGGQRVSDNIKKETPFLEVITHELQDFAVDDPHDDKEEQDLDQQGNEENLFDSLTGQPHPEDVLLFAIPICAPYTTMTNYKYKVKLTPGVQKKGKAAKTALNSFMHSKEATAREKDLFRSVKDTDLSRNIPGKVKVSAPNLLNVKRK
B4: TRIP4 (protein, UniProt Q15650 1-581)
chain: MAVAGAVSGEPLVHWCTQQLRKTFGLDVSEEIIQYVLSIESAEEIREYVTDLLQGNEGKKGQFIEELITKWQKNDQELISDPLQQCFKKDEILDGQKSGDHLKRGRKKGRNRQEVPAFTEPDTTAEVKTPFDLAKAQENSNSVKKKTKFVNLYTREGQDRLAVLLPGRHPCDCLGQKHKLINNCLICGRIVCEQEGSGPCLFCGTLVCTHEEQDILQRDSNKSQKLLKKLMSGVENSGKVDISTKDLLPHQELRIKSGLEKAIKHKDKLLEFDRTSIRRTQVIDDESDYFASDSNQWLSKLERETLQKREEELRELRHASRLSKKVTIDFAGRKILEEENSLAEYHSRLDETIQAIANGTLNQPLTKLDRSSEEPLGVLVNPNMYQSPPQWVDHTGAASQKKAFRSSGFGLEFNSFQHQLRIQDQEFQEGFDGGWCLSVHQPWASLLVRGIKRVEGRSWYTPHRGRLWIAATAKKPSPQEVSELQATYRLLRGKDVEFPNDYPSGCLLGCVDLIDCLSQKQFKEQFPDISQESDSPFVFICKNPQEMVVKFPIKGNPKIWKLDSKIHQGAKKGLMKQNKAV
B5: ZNF598 (protein, UniProt Q86UK7 1-904)
chain: MAAAGGAEGRRAALEAAAAAAPERGGGSCVLCCGDLEATALGRCDHPVCYRCSTKMRVLCEQRYCAVCREELRQVVFGKKLPAFATIPIHQLQHEKKYDIYFADGKVYALYRQLLQHECPRCPELPPFSLFGDLEQHMRRQHELFCCRLCLQHLQIFTYERKWYSRKDLARHRMQGDPDDTSHRGHPLCKFCDERYLDNDELLKHLRRDHYFCHFCDSDGAQDYYSDYAYLREHFREKHFLCEEGRCSTEQFTHAFRTEIDLKAHRTACHSRSRAEARQNRHIDLQFSYAPRHSRRNEGVVGGEDYEEVDRYSRQGRVARAGTRGAQQSRRGSWRYKREEEDREVAAAVRASVAAQQQEEARRSEDQEEGGRPKKEEAAARGPEDPRGPRRSPRTQGEGPGPKETSTNGPVSQEAFSVTGPAAPGCVGVPGALPPPSPKLKDEDFPSLSASTSSSCSTAATPGPVGLALPYAIPARGRSAFQEEDFPALVSSVPKPGTAPTSLVSAWNSSSSSKKVAQPPLSAQATGSGQPTRKAGKGSRGGRKGGPPFTQEEEEDGGPALQELLSTRPTGSVSSTLGLASIQPSKVGKKKKVGSEKPGTTLPQPPPATCPPGALQAPEAPASRAEGPVAVVVNGHTEGPAPARSAPKEPPGLPRPLGSFPCPTPQEDFPALGGPCPPRMPPPPGFSAVVLLKGTPPPPPPGLVPPISKPPPGFSGLLPSPHPACVPSPATTTTTKAPRLLPAPRAYLVPENFRERNLQLIQSIRDFLQSDEARFSEFKSHSGEFRQGLISAAQYYKSCRDLLGENFQKVFNELLVLLPDTAKQQELLSAHTDFCNREKPLSTKSKKNKKSAWQATTQQAGLDCRVCPTCQQVLAHGDASSHQALHAARDDDFPSLQAIARIIT
B6: LYRIC (protein, UniProt Q86UE4 1-582)
chain: MAARSWQDELAQQAEEGSARLREMLSVGLGFLRTELGLDLGLEPKRYPGWVILVGTGALGLLLLFLLGYGWAAACAGARKKRRSPPRKREEAAAVPAAAPDDLALLKNLRSEEQKKKNRKKLSEKPKPNGRTVEVAEGEAVRTPQSVTAKQPPEIDKKNEKSKKNKKKSKSDAKAVQNSSRHDGKEVDEGAWETKISHREKRQQRKRDKVLTDSGSLDSTIPGIENTITVTTEQLTTASFPVGSKKNKGDSHLNVQVSNFKSGKGDSTLQVSSGLNENLTVNGGGWNEKSVKLSSQISAGEEKWNSVSPASAGKRKTEPSAWSQDTGDANTNGKDWGRSWSDRSIFSGIGSTAEPVSQSTTSDYQWDVSRNQPYIDDEWSGLNGLSSADPNSDWNAPAEEWGNWVDEERASLLKSQEPIPDDQKVSDDDKEKGEGALPTGKSKKKKKKKKKQGEDNSTAQDTEELEKEIREDLPVNTSKTRPKQEKAFSLKTISTSDPAEVLVKNSQPIKTLPPATSTEPSVILSKSDSDKSSSQVPPILQETDKSKSNTKQNSVPPSQTKSETSWESPKQIKKKKKARRET

These binders were tested against GFP-SRP9 (human) (UniProt P49458) (assay: affinity purification with mass spectrometry; IP-SILAC: GFP-Trap beads on whole-cell extracts of HEK293 Flp-In T-REx cells (GFP-SRP19, GFP-SRP9, GFP-SRP14) or U2OS Flp-In T-REx cells (GFP-SRP72) induced 3 h, against parental cells; HNT buffer (20 mM Hepes pH 7.4, 150 mM NaCl, 0.5% Triton X-100), 1.5 h at 4°C; positive: SILAC ratio above 1).

With B1 as the binder, how does the binding read?
Its binding is “binds weakly”.

Each binder was assayed against GFP-SRP14 (human) (UniProt P37108) in the same assay as above.

How did the binding turn out when B2 was run?
Its binding is “binds”.

For B3, which binding is on record?
Its binding is “binds”.

For B4, which binding is on record?
The binding was “binds”.

B5 was tested. Which binding did it give?
Its binding is “binds”.

Each binder was assayed against T1, GFP-SRP19 (human) (UniProt P09132) in the same assay as above.
T1 sequence: B1 chain

With B2 as the binder, how does the binding read?
Its binding is “binds”.

Which binding does the source give for B3 here?
The binding was “binds”.

For B4, which binding is on record?
Its binding is “binds”.

With B5 as the binder, how does the binding read?
Its binding is “binds”.

Which binding does the source give for B6 here?
Its binding is “binds”.

The binders below were run against T2, GFP-SRP72 (human) (UniProt O76094) in the same assay as above.
T2 sequence: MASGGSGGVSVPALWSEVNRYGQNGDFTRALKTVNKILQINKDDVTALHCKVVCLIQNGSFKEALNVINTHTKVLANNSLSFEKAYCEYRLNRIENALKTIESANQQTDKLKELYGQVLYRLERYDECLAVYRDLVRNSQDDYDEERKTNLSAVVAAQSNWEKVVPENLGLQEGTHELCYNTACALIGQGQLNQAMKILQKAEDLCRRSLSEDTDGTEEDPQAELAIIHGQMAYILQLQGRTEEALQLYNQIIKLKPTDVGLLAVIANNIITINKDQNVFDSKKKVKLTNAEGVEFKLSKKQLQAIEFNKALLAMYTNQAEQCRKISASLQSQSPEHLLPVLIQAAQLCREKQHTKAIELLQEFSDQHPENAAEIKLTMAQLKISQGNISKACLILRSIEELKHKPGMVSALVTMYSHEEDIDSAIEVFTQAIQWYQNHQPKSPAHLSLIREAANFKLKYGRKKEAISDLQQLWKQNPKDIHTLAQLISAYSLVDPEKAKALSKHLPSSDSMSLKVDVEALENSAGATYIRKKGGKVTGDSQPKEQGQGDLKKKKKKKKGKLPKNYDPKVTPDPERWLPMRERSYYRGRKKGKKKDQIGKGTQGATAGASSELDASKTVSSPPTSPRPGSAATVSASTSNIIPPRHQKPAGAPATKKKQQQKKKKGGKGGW

For B2, which binding is on record?
Its binding is “binds”.

B3 was tested. Which binding did it give?
The binding was “binds”.

B4 was tested. Which binding did it give?
Its binding is “binds”.

With B5 as the binder, how does the binding read?
The binding was “binds”.

For B1, which binding is on record?
The binding was “binds”.

For B6, which binding is on record?
Its binding is “binds”.

No constants are given. Whether binding was seen depends on the method and setting. Binding seen in cells or lysates may run through a third protein. Here binding means that the protein was enriched with, or labelled near, the bait; the list need not be complete. Sequences can lack the tags named with a protein.
